# Laboratory results: the supplement of paper PMC6658780
# Where a name gives a salt, the structure may show the parent alone. ± gives the standard deviation of the averaged measurements. This is one part of the list. This data set is noisy: repeats of one test often differ as much as different tests do.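 The A. baumannii strains are clinical isolates chosen because they resist the partner antibiotic, and the screen looks for drugs that restore that antibiotic's effect. The reading at the start of incubation is subtracted to remove background from coloured compounds.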
# Experiments:
# [1] = tested on: Acinetobacter baumannii NCTC-13301; test: percent growth inhibition of drug alone vs DMSO control; higher = more growth inhibition; settings: antibiotic (0.125x MIC): none (0.1% DMSO)
# [2] = tested on: Acinetobacter baumannii NCTC-13301; test: percent growth inhibition of drug + antibiotic vs DMSO control; higher = more growth inhibition
# [3] = tested on: Acinetobacter baumannii WP-487; test: percent growth inhibition of drug alone vs DMSO control; higher = more growth inhibition; settings: antibiotic (0.125x MIC): none (0.1% DMSO)
# [4] = tested on: Acinetobacter baumannii WP-487; test: percent growth inhibition of drug + antibiotic vs DMSO control; higher = more growth inhibition; settings: antibiotic (0.125x MIC): colistin
# [5] = antibiotic (0.125x MIC): meropenem, 7 µM
# [6] = antibiotic (0.125x MIC): meropenem, 20 µM
# [7] = antibiotic (0.125x MIC): ciprofloxacin, 7 µM
# [8] = antibiotic (0.125x MIC): ciprofloxacin, 20 µM
# [9] = antibiotic (0.125x MIC): gentamicin, 7 µM
# [10] = antibiotic (0.125x MIC): gentamicin, 20 µM
# [11] = antibiotic (0.125x MIC): tigecycline, 7 µM
# [12] = antibiotic (0.125x MIC): tigecycline, 20 µM
smiles,measurement,setting,value
CN(C)[C@@H]1C(O)=C(C(N)=O)C(=O)[C@@]2(O)C(O)=C3C(=O)c4c(O)cccc4[C@@](C)(O)[C@H]3C[C@@H]12 [Tetracycline hydrochloride],percent growth inhibition of drug alone,[1]; 7 µM,15.6 ± 7.1%
same,percent growth inhibition of drug alone,[1]; 20 µM,56 ± 1.5%
same,percent growth inhibition,[2]; [5],37.7 ± 19%
same,percent growth inhibition,[2]; [6],87.4 ± 7.6%
COc1c(N2CCNC(C)C2)c(F)cc2c(=O)c(C(=O)O)cn(C3CC3)c12 (stereo not drawn) [Gatifloxacin],percent growth inhibition of drug alone,[1]; 7 µM,6.31 ± 9.6%
same,percent growth inhibition of drug alone,[1]; 20 µM,8.44 ± 0.39%
same,percent growth inhibition,[2]; [7],9.04 ± 4.6%
same,percent growth inhibition,[2]; [8],53.4 ± 14%
COc1cc(C(=O)NS(=O)(=O)c2ccccc2C)ccc1Cc1cn(C)c2ccc(NC(=O)OC3CCCC3)cc12 [Zafirlukast],percent growth inhibition of drug alone,[1]; 7 µM,-97.6 ± 110%
same,percent growth inhibition of drug alone,[1]; 20 µM,-106 ± 110%
same,percent growth inhibition,[2]; [7],-1.48 ± 6.1%
same,percent growth inhibition,[2]; [8],-7.92 ± 7%
same,percent growth inhibition,[2]; [9],-0.551 ± 1.3%
same,percent growth inhibition,[2]; [10],-31.2 ± 22%
same,percent growth inhibition,[2]; [5],0.489 ± 0.034%
same,percent growth inhibition,[2]; [6],-0.302 ± 5.9%
same,percent growth inhibition,[2]; [11],-4.64 ± 3.1%
same,percent growth inhibition,[2]; [12],-54.2 ± 64%
CN(C)CCCN1c2ccccc2Sc2ccc(C(F)(F)F)cc21 [Triflupromazine hydrochloride],percent growth inhibition of drug alone,[3]; 7 µM,5.7 ± 0.79%
same,percent growth inhibition of drug alone,[3]; 20 µM,-0.389 ± 2.3%
Cc1c(O)cccc1C(=O)N[C@@H](CSc1ccccc1)[C@H](O)CN1C[C@H]2CCCC[C@H]2C[C@H]1C(=O)NC(C)(C)C [Nelfinavir mesylate],percent growth inhibition of drug alone,[1]; 7 µM,3.71 ± 0.76%
same,percent growth inhibition of drug alone,[1]; 20 µM,-11.5 ± 23%
same,percent growth inhibition of drug alone,[3]; 7 µM,3.44 ± 2.1%
same,percent growth inhibition of drug alone,[3]; 20 µM,1.66 ± 1.5%
same,percent growth inhibition,[2]; [9],5.84 ± 0.78%
same,percent growth inhibition,[2]; [10],2.22 ± 2%
same,percent growth inhibition,[2]; [11],0.852 ± 2.4%
same,percent growth inhibition,[2]; [12],20.2 ± 5.1%
same,percent growth inhibition,[4]; 7 µM,2.52 ± 0.19%
same,percent growth inhibition,[4]; 20 µM,41.2 ± 64%
CCOc1ccc2ccccc2c1C(=O)N[C@@H]1C(=O)N2[C@@H]1SC(C)(C)[C@@H]2C(=O)O [Nafcillin sodium salt monohydrate],percent growth inhibition of drug alone,[1]; 7 µM,-3.07 ± 2.4%
same,percent growth inhibition of drug alone,[1]; 20 µM,-15.4 ± 21%
same,percent growth inhibition,[2]; [9],0.142 ± 0.42%
same,percent growth inhibition,[2]; [10],-3.22 ± 6%
NCCc1c[nH]cn1 [Histamine dihydrochloride],percent growth inhibition of drug alone,[1]; 7 µM,-1.11 ± 5.2%
same,percent growth inhibition of drug alone,[1]; 20 µM,15.9 ± 9.9%
same,percent growth inhibition,[2]; [5],-2.96 ± 2.3%
same,percent growth inhibition,[2]; [6],93.9 ± 9.1%
Cc1c(F)c(N2CCNC(C)C2)cc2c1c(=O)c(C(=O)O)cn2C1CC1 (stereo not drawn) [Grepafloxacin],percent growth inhibition of drug alone,[1]; 7 µM,4.82 ± 3.4%
same,percent growth inhibition of drug alone,[1]; 20 µM,5.67 ± 6.1%
same,percent growth inhibition,[2]; [7],10.7 ± 2.2%
same,percent growth inhibition,[2]; [8],43.1 ± 13%
O=c1cc(-c2ccc(O)c(O)c2)oc2cc(O)cc(O)c12 [Luteolin],percent growth inhibition of drug alone,[1]; 7 µM,-2.57 ± 5.6%
same,percent growth inhibition of drug alone,[1]; 20 µM,-32.5 ± 30%
same,percent growth inhibition,[2]; [7],1.42 ± 5.6%
same,percent growth inhibition,[2]; [8],-0.781 ± 1.8%
same,percent growth inhibition,[2]; [9],-0.497 ± 4.9%
same,percent growth inhibition,[2]; [10],-0.973 ± 5.2%
same,percent growth inhibition,[2]; [5],5.72 ± 9.8%
same,percent growth inhibition,[2]; [6],-4.43 ± 2.7%
same,percent growth inhibition,[2]; [11],4.4 ± 0.39%
same,percent growth inhibition,[2]; [12],-1.25 ± 2.2%
Clc1ccc(COC(Cn2ccnc2)c2ccc(Cl)cc2Cl)cc1 (stereo not drawn) [Econazole nitrate],percent growth inhibition of drug alone,[3]; 7 µM,-6.83 ± 6.6%
same,percent growth inhibition of drug alone,[3]; 20 µM,-6.23 ± 0.51%
CCOC(=O)Nc1ccc2c(c1)N(C(=O)CCN1CCOCC1)c1ccccc1S2 [Moricizine hydrochloride],percent growth inhibition of drug alone,[1]; 7 µM,-9.53 ± 15%
same,percent growth inhibition of drug alone,[1]; 20 µM,-0.082 ± 6.6%
same,percent growth inhibition,[2]; [7],4.8 ± 17%
same,percent growth inhibition,[2]; [8],2.88 ± 14%
same,percent growth inhibition,[2]; [9],-0.00367 ± 19%
same,percent growth inhibition,[2]; [10],1.31 ± 11%
same,percent growth inhibition,[2]; [5],7.29 ± 21%
same,percent growth inhibition,[2]; [6],-1.17 ± 13%
CC[C@H]1OC(=O)[C@H](C)[C@@H](O[C@H]2C[C@@](C)(OC)[C@@H](O)[C@H](C)O2)[C@H](C)[C@@H](O[C@@H]2O[C@H](C)C[C@H](N(C)C)[C@H]2O)[C@](C)(O)C[C@@H](C)CN(C)[C@H](C)[C@@H](O)[C@]1(C)O [Azithromycin],percent growth inhibition of drug alone,[1]; 7 µM,42.5 ± 6.3%
same,percent growth inhibition of drug alone,[1]; 20 µM,100.7 ± 0.81%
same,percent growth inhibition,[2]; [5],73.4 ± 3.4%
same,percent growth inhibition,[2]; [6],101.1 ± 0.48%
O=C(c1ccc(OCCN2CCCCC2)cc1)c1c(-c2ccc(O)cc2)sc2cc(O)ccc12 [Raloxifene hydrochloride],percent growth inhibition of drug alone,[1]; 7 µM,4.28 ± 5.3%
same,percent growth inhibition of drug alone,[1]; 20 µM,-16.1 ± 18%
same,percent growth inhibition,[2]; [11],-2.56 ± 2.1%
same,percent growth inhibition,[2]; [12],-28 ± 65%
N[C@@H]1CCCCN(c2c(F)cc3c(=O)c(C(=O)O)cn(C4CC4)c3c2Cl)C1 [Besifloxacin hydrochloride],percent growth inhibition of drug alone,[1]; 7 µM,-0.00521 ± 3.2%
same,percent growth inhibition of drug alone,[1]; 20 µM,0.565 ± 2.8%
same,percent growth inhibition,[2]; [7],11.2 ± 6.6%
same,percent growth inhibition,[2]; [8],47.2 ± 8.9%
CN(C(=O)CN(CCO)CC(=O)N(C)C(C)(C)Cc1ccccc1)C(C)(C)Cc1ccccc1 [Oxethazaine],percent growth inhibition of drug alone,[1]; 7 µM,3.03 ± 2.4%
same,percent growth inhibition of drug alone,[1]; 20 µM,-32 ± 20%
same,percent growth inhibition,[2]; [7],-3.25 ± 0.34%
same,percent growth inhibition,[2]; [8],19 ± 5.7%
same,percent growth inhibition,[2]; [9],-36.3 ± 34%
same,percent growth inhibition,[2]; [10],-14.5 ± 1.2%
same,percent growth inhibition,[2]; [5],-4.3 ± 8.6%
same,percent growth inhibition,[2]; [6],-3.74 ± 8.1%
same,percent growth inhibition,[2]; [11],6.41 ± 2.9%
same,percent growth inhibition,[2]; [12],20.5 ± 0.31%
same,percent growth inhibition,[4]; 7 µM,52.4 ± 55%
same,percent growth inhibition,[4]; 20 µM,98.4 ± 1.9%
CC1(C)[C@H](C(=O)O)N2C(=O)C[C@H]2S1(=O)=O [Sulbactam],percent growth inhibition of drug alone,[1]; 7 µM,-1.41 ± 0.68%
same,percent growth inhibition of drug alone,[1]; 20 µM,13.9 ± 8%
same,percent growth inhibition,[2]; [5],23.2 ± 3.7%
same,percent growth inhibition,[2]; [6],91.6 ± 12%
CC(C)C(=O)OCC(=O)[C@@]12O[C@H](C3CCCCC3)O[C@@H]1C[C@H]1[C@@H]3CCC4=CC(=O)C=C[C@]4(C)[C@H]3[C@@H](O)C[C@@]12C [Ciclesonide],percent growth inhibition of drug alone,[3]; 7 µM,1.88 ± 5.1%
same,percent growth inhibition of drug alone,[3]; 20 µM,5.26 ± 3.1%
same,percent growth inhibition,[4]; 7 µM,5.94 ± 19%
same,percent growth inhibition,[4]; 20 µM,36.1 ± 69%
CCN(CC)CCOC(=O)C1(C2CCCCC2)CCCCC1 [Dicyclomine hydrochloride],percent growth inhibition of drug alone,[3]; 7 µM,-3.61 ± 12%
same,percent growth inhibition of drug alone,[3]; 20 µM,-1.81 ± 4.5%
C#Cc1cccc(Nc2ncnc3cc(OCCOC)c(OCCOC)cc23)c1 [Erlotinib],percent growth inhibition of drug alone,[3]; 7 µM,4.71 ± 3.5%
same,percent growth inhibition of drug alone,[3]; 20 µM,-0.044 ± 3%
same,percent growth inhibition,[4]; 7 µM,-1.84 ± 1.4%
same,percent growth inhibition,[4]; 20 µM,53.4 ± 66%
CC(=O)[C@@]12O[C@](C)(c3ccccc3)O[C@@H]1C[C@H]1[C@@H]3CCC4=CC(=O)CC[C@]4(C)[C@H]3CC[C@@]12C [Algestone acetophenide],percent growth inhibition of drug alone,[3]; 7 µM,4.11 ± 1.4%
same,percent growth inhibition of drug alone,[3]; 20 µM,7.1 ± 6.4%
Cc1cc(/C=C/c2ccc3cc(N(C)C)ccc3[n+]2C)c(C)n1-c1ccccc1 [Pyrvinium pamoate],percent growth inhibition of drug alone,[3]; 7 µM,5.79 ± 3.1%
same,percent growth inhibition of drug alone,[3]; 20 µM,8.84 ± 11%
same,percent growth inhibition,[4]; 7 µM,53.2 ± 56%
same,percent growth inhibition,[4]; 20 µM,54.7 ± 57%
Fc1ccc(C(c2ccc(F)cc2)N2CCN(C/C=C/c3ccccc3)CC2)cc1 [Flunarizine dihydrochloride],percent growth inhibition of drug alone,[3]; 7 µM,0.857 ± 6.8%
same,percent growth inhibition of drug alone,[3]; 20 µM,0.241 ± 3.1%

# Some of the entries so far, as tab-separated lines:
smiles	measurement	setting	value
O=c1cc(-c2ccc(O)c(O)c2)oc2cc(O)cc(O)c12 [Luteolin]	percent growth inhibition of drug alone	[1]; 20 µM	-32.5 ± 30%
same	percent growth inhibition	[2]; [7]	1.42 ± 5.6%
same	percent growth inhibition	[2]; [8]	-0.781 ± 1.8%
same	percent growth inhibition	[2]; [9]	-0.497 ± 4.9%
same	percent growth inhibition	[2]; [10]	-0.973 ± 5.2%
same	percent growth inhibition	[2]; [5]	5.72 ± 9.8%

# Two entries from above in another layout:
smiles | measurement | setting | value
O=c1cc(-c2ccc(O)c(O)c2)oc2cc(O)cc(O)c12 [Luteolin] | percent growth inhibition | [2]; [9] | -0.497 ± 4.9%
Clc1ccc(COC(Cn2ccnc2)c2ccc(Cl)cc2Cl)cc1 (stereo not drawn) [Econazole nitrate] | percent growth inhibition of drug alone | [3]; 7 µM | -6.83 ± 6.6%
